Measured values taken from publication PMC3398031.
Results are given in words; binding and its absence hold for the method and conditions named. In cells and extracts the contact can be indirect. Some entries that bind do so weakly or less than the wild type. Tags and fused reporters may be left off the sequences shown.

Protein sequences, listed by entry. Tags and fused reporters are not part of them.
UniProt P61073: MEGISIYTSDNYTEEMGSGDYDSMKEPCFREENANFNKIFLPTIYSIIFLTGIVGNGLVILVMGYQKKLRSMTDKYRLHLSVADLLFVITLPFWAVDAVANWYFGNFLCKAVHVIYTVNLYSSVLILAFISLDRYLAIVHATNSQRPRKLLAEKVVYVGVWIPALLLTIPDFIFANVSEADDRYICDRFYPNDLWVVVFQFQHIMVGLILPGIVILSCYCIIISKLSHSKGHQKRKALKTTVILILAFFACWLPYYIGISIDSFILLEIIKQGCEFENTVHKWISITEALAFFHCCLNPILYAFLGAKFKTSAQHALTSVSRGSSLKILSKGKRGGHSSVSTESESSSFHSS

Biological target: CXCR4 (construct of the co-immunoprecipitation in Figure 2c) (UniProt P61073)
Experiment: co-IP; HEK293 cells, 48 h after transfection, lysed in RIPA buffer; receptor precipitated (HA-tagged CCR5; the reciprocal was also done), FLAG-tagged DRiP78 detected by blot

B1: FLAG-tagged DRiP78 (protein, UniProt Q6Y2X3 1-702)
chain: MAQKHPGERGLYGAHHSGGASLRTLGPSVDPEIPSFSGLRDSAGTAPNGTRCLTEHSGPKHTQHPNPAHWLDPSHGPPGGPGPPRDAEDPDQSETSSEEESGVDQELSKENETGNQKDGNSFLSIPSACNCQGTPGIPEGPYSEGGNGSSSNFCHHCTSPALGEDELEEEYDDEESLKFPSDFSRVSSGKKPPSRRQRHRFPTKEDTREGGRRDPRSPGRHRLGRKRSQADKRKGLGLWGAEELCQLGQAGFWWLIELLVLVGEYVETCGHLIYACRQLKSSDLDLFRVWMGVWTGRLGGWAQVMFQFLSQGFYCGVGLFTRFLKLLGALLLLALALFLGFLQLGWRFLVGLGDRLGWRDKATWLFSWLDSPALQRCLTLLRDSRPWQRLVRIVQWGWLELPWVKQNINRQGNAPVASGRYCQPEEEVARLLTMAGVPEDELNPFHVLGVEATASDVELKKAYRQLAVMVHPDKNHHPRAEEAFKVLRAAWDIVSNAEKRKEYEMKRMAENELSRSVNEFLSKLQDDLKEAMNTMMCSRCQGKHRRFEMDREPKSARYCAECNRLHPAEEGDFWAESSMLGLKITYFALMDGKVYDITEWAGCQRVGISPDTHRVPYHISFGSRIPGTRGRQRATPDAPPADLQDFLSRIFQVPPGQMPNGNFFAAPQPAPGAAAASKPNSTVPKGEAKPKRRKKVRRPFQR
- binding: binds
